# According to US20230295301A1:
# Sequences of proteins named here, by UniProt entry; tags and fusion partners are left off. A change or cut given only in a name is not applied to a line headed by its entry.
# UniProt P16410: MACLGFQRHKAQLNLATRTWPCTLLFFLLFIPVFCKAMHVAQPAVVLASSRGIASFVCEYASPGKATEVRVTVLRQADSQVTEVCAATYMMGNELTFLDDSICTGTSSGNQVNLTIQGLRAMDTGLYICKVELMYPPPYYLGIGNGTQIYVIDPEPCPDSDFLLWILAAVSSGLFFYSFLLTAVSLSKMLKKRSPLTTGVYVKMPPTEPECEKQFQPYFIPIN
# No constants are given. Whether binding was seen depends on the method and setting. Some results given as binding are weak or reduced against the parent protein; the word gives no strength.
# B1: 3E6.1 (antibody, V domains shown)
# VH: EVKLVESGGGLVQPGGSLRLSCATSGFTFTDYYMSWVRQPPGKALEWLGFIRNKANGFTAEYSASVKGRFTISRDNSQSILYLQMNTLRAEDSATYYCARDSLAYPHYYAMDYWGQGTSVTVSS
# VL: QIVLTQSPALMSASPGEKVTMTCSASSSVSYMYWYQQKPRSSPKPWIYLTSNLASGVPVRFSGSGSGTSYSLTISSMEAEDAATYYCQQWSSNSFTFGSGTKLEIK
# B2: huJS007-47 (antibody, human IgG1, kappa, V domains shown)
# VH: QVQLQESGPGLVKPSQTLSLTCTVSAYSITSGYYWNWIRQHPGKGLEWIGYIGYDGSNNYNPSLKSRVTISRDTSKNQFSLKLSSVTAADTAVYYCARDYYSGYFDSWGQGTTLTVSS
# VL: DIQMTQSPSSLSASVGDRVTITCRASQNVGTYVAWYQQKPGKVPKPLIYSTSYRYSGVPSRFSGSGSGTDFTLTISSLQPEDVATYFCHQYDTYPLTFGAGTKLELKR
# Assays:
# [1] = target: huCTLA-4 (human) (UniProt P16410); test: ForteBio
# [2] = target: huCTLA-4 (human) (UniProt P16410); test: ForteBio, antibody captured on protein A probe, 55 nM huCTLA antigen
Binder,binding [1],binding [2]
B1,binds,–
B2,–,binds
